In the supplement of paper PMC6411743:
± gives the standard deviation of the averaged measurements. The list shows a part of the results, in another mix than the full data. Most values lie at the level of the controls, where differences are scatter.

The chains behind the UniProt entries cited, without tags or fusion partners. Where a name states a change or a piece, a line headed by the entry shows the natural chain unless it says otherwise.
UniProt Q9UK76: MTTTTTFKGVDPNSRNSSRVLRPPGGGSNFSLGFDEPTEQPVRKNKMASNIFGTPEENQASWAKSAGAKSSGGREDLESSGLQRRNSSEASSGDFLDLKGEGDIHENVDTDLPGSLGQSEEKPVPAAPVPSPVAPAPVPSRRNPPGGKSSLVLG
UniProt Q9UBP6: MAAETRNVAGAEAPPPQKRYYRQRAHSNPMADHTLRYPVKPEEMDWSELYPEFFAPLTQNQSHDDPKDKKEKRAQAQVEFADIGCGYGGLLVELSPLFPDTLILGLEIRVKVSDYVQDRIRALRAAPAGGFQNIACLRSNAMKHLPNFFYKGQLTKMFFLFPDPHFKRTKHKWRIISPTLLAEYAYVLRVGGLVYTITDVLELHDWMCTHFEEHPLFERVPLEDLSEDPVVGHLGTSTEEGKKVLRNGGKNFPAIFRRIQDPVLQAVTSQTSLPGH
UniProt Q9UPT8: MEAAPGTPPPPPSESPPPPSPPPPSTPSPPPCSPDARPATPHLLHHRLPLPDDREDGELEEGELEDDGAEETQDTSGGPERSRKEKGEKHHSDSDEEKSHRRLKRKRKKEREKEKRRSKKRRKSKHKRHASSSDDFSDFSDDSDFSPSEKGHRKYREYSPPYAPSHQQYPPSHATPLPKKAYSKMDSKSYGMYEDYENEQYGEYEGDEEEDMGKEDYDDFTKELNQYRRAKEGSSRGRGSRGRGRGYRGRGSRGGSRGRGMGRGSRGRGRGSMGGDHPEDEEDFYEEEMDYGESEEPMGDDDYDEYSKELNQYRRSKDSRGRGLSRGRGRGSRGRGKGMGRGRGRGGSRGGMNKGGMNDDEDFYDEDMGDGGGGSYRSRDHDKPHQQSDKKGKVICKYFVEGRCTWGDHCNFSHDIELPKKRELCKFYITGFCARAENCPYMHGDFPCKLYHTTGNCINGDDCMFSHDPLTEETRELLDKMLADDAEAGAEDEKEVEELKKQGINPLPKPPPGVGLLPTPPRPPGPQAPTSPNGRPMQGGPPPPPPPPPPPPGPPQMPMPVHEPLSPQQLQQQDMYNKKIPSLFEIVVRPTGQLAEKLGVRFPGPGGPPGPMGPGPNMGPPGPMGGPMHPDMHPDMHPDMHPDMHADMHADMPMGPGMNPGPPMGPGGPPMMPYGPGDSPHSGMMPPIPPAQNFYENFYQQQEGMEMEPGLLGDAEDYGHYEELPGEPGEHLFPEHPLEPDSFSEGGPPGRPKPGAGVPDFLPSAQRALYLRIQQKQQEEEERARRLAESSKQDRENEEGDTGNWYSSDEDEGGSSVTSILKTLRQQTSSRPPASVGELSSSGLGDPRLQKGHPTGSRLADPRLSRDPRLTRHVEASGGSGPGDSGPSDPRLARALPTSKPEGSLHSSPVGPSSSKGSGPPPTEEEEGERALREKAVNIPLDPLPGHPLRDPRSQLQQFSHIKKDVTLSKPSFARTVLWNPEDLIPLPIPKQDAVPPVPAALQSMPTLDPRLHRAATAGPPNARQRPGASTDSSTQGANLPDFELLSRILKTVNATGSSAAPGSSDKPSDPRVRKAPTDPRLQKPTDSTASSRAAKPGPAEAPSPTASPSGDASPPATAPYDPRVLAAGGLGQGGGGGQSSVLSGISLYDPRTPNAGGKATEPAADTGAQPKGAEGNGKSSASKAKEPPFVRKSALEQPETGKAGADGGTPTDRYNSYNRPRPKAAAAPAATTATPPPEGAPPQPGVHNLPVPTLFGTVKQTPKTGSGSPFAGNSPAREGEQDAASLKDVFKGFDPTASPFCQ
UniProt Q9UKV8, whole entry: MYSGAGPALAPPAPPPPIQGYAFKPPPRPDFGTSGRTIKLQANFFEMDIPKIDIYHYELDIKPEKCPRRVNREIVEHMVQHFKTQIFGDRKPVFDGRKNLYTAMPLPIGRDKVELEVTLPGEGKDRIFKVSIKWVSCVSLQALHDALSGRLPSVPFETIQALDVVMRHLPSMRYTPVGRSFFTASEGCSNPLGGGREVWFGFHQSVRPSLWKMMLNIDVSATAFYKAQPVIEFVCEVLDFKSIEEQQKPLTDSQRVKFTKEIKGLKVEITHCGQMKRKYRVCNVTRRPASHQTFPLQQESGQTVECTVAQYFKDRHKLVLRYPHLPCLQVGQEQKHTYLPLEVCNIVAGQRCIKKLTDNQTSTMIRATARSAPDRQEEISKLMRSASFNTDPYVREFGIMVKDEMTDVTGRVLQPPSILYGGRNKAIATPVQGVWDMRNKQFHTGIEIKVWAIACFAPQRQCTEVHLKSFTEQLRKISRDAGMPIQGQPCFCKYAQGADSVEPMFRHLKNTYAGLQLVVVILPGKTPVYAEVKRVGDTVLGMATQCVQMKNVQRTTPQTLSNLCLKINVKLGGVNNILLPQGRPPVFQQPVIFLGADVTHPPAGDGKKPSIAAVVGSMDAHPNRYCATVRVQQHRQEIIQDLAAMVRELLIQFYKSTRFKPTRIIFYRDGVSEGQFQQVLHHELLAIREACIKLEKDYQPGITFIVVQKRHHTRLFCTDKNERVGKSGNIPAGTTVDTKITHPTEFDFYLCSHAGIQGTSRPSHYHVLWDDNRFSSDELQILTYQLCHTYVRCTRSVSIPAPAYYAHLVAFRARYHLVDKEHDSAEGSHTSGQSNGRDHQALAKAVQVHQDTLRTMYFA
UniProt Q9P2B4: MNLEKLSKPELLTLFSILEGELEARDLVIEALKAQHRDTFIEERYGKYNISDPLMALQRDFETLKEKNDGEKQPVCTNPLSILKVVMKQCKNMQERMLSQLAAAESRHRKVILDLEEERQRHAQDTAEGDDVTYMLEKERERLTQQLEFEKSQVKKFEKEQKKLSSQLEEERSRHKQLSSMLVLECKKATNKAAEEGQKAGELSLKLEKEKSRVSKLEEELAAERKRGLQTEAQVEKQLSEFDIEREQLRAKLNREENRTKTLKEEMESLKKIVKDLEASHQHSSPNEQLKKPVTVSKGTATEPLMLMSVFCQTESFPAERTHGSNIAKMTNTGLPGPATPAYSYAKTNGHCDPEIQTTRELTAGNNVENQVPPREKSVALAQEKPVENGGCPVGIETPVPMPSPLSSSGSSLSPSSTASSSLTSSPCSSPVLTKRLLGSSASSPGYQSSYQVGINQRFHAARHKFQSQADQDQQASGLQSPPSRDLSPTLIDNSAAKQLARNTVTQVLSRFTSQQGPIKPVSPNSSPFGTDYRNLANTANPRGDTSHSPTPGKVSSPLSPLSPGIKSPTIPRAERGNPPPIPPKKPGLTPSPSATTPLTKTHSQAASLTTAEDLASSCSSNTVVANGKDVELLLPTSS
UniProt Q9UBK9, whole entry: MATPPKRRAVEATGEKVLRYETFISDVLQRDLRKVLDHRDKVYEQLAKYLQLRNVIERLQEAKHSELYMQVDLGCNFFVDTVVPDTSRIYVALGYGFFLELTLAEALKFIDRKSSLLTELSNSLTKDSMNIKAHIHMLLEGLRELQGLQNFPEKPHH
UniProt Q9UET6: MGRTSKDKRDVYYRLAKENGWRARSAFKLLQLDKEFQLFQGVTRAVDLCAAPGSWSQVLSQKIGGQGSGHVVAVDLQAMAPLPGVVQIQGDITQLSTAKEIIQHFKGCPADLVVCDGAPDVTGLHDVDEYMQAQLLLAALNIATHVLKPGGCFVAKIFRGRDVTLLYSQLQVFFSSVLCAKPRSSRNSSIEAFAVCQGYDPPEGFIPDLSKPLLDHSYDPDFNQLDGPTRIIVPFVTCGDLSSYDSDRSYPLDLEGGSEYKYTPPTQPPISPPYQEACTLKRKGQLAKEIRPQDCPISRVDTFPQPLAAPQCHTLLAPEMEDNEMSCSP
UniProt Q9UI12, whole entry: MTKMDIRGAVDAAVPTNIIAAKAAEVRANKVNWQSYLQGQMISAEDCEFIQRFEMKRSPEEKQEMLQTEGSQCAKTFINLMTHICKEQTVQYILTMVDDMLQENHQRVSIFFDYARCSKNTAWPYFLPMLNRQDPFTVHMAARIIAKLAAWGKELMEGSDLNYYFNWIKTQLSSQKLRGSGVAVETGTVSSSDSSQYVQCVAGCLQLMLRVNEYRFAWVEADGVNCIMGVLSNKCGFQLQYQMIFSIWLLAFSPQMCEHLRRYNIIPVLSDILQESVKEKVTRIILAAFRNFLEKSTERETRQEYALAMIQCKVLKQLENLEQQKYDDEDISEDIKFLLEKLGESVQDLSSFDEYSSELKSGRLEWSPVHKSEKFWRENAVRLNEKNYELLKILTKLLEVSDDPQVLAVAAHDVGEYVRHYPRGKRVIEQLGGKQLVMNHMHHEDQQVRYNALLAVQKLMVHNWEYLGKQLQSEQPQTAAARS
UniProt Q9UPP1: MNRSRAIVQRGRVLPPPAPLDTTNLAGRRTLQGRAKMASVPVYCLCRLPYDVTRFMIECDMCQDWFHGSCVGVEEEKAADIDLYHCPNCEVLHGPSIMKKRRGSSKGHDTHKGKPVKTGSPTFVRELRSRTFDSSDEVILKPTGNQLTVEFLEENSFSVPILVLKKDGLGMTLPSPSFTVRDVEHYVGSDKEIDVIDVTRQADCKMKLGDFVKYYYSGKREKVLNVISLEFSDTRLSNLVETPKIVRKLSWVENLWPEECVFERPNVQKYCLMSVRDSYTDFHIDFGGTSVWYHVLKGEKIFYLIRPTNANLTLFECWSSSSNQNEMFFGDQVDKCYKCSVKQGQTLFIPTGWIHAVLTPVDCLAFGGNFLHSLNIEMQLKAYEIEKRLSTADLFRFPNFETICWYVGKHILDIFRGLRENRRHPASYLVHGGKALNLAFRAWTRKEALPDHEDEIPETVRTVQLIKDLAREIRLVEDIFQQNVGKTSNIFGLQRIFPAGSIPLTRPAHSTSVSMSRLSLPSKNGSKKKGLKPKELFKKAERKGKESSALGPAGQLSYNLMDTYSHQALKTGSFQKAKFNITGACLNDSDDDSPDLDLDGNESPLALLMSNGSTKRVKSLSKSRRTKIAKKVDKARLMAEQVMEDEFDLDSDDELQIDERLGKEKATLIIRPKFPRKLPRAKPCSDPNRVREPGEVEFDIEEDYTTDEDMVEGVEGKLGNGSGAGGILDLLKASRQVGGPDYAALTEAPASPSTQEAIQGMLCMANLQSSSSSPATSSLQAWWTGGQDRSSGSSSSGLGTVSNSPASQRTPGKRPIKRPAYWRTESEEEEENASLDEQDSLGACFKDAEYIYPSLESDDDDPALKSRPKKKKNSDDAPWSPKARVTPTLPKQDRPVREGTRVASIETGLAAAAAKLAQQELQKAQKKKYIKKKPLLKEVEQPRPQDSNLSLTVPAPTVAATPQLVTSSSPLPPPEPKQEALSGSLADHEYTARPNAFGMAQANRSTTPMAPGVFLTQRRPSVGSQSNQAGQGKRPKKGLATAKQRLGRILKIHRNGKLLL
UniProt Q9UDW3: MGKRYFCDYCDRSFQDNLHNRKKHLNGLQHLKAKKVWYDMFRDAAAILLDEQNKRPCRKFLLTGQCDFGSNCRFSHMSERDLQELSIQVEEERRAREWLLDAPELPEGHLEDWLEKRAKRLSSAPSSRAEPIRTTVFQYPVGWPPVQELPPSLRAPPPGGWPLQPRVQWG
UniProt Q9UKW4: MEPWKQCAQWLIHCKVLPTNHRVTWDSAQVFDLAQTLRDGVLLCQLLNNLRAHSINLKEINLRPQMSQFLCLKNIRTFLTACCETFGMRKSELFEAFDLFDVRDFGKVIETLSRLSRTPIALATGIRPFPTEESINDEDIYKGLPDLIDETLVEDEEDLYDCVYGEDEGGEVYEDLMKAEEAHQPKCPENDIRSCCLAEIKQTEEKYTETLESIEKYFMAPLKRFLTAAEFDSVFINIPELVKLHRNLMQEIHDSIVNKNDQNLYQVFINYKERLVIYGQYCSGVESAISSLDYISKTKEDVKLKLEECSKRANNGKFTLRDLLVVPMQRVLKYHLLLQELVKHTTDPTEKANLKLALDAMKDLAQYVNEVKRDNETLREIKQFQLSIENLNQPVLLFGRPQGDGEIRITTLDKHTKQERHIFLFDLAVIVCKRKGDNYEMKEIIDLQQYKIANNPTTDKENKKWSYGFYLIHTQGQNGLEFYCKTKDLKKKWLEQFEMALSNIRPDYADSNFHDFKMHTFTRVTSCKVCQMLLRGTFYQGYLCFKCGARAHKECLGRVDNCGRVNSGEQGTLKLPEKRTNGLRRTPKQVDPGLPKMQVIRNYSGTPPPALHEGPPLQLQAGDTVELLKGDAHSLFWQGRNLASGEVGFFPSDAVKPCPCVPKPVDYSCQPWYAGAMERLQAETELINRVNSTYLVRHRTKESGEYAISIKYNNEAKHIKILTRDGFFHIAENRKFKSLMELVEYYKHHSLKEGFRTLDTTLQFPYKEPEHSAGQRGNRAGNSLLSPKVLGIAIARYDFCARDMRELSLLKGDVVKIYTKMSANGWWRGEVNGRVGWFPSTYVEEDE

The targets below were run with Nc1ncnc2c1ncn2[C@@H]1O[C@H](COP(=O)(O)OP(=O)(O)OP(=O)(O)O)[C@@H](O)[C@H]1O [adenosine triphosphate] (assay: NP40-soluble protein abundance relative to vehicle (solubility fold change) (ratio); higher = more soluble protein in presence of ATP). Settings: concentration: 0.5mM.
Outline: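 Jurkat crude lysate prepared with a Dounce homogeniser was treated at eight concentrations spanning 0.1 to 10 mM, 10 min at room temperature then 3 min at 37 °C. Solubilisation with 0.8% NP40 and benzonase and ultracentrifugation preceded TMT labelling of the supernatant for LC-MS/MS. Fold change against the detergent-processed vehicle was determined per replicate from vsn-normalised intensities, across three independent experiments.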

Target | NP40-soluble protein abundance
UniProt Q9UK76 | 0.909 ± 0.053
METTL1 (UniProt Q9UBP6) | 0.99 ± 0.1
ZC3H4 (UniProt Q9UPT8) | 0.99 ± 0.037
UniProt Q9UKV8 | 1.04 ± 0.031
CTTNBP2NL (UniProt Q9P2B4) | 0.952 ± 0.023
UXT (UniProt Q9UBK9) | 0.9605 ± 0.0025
UniProt Q9UET6 and related entries | 1.13 ± 0.091
UniProt Q9UI12 and related entries | 1.04 ± 0.059
UniProt Q9UPP1 and related entries | 1.03 ± 0.029
ZMAT5 (UniProt Q9UDW3) | 1.07 ± 0.12
UniProt Q9UKW4 and related entries | 1.06 ± 0.076

Retrieved one by one from the entries so far, two records:
Target | NP40-soluble protein abundance
UniProt Q9UKW4 and related entries | 1.06 ± 0.076
CTTNBP2NL (UniProt Q9P2B4) | 0.952 ± 0.023
